Data source: PubChem BioAssay AID504793 (Drosophila RNAi Screening Center, 2011)

Screen: 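Genes required for cells to halt at G2/M after double-strand DNA breaks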 (primary screen)
Cells: Drosophila S2R+ cells
Knock-down reagent: long dsRNA against Drosophila genes, about 0.25 µg dsRNA per well
Timing: 4 days of dsRNA, then 4 hours of drug before read-out
Treatment: doxorubicin 0.5 µM for 4 hours to cause double-strand breaks, in cells also given a low, harmless dose of dsRNA against nbs to sensitise the assay
Read-out: 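Mitotic index as the number of phospho-histone H3-positive cells in each well following doxorubicin, given as raw counts without normalisation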
Reading the numbers: mitotic cells: higher = more cells in mitosis, weaker G2 arrest
Hit rule: 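Genes are called active only when high mitotic counts were reproduced with independent dsRNAs and mitosis was checked for delay without damage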
Calls: active = confirmed in follow-up tests; inactive = not confirmed
In all, the deposit lists about 23,000 reagents; shown is a random part of those with a known target gene and a result. In the full data, 62 (0.27%) are marked active. 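Calls come from follow-up tests whose scores are not deposited, so confirmed genes may have low counts here; counts are not normalised per plate.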 Raw values are not corrected between plates. Names joined by + are all predicted targets of the reagent.

CG11373 [DRSC12170] — mitotic cells, replicate 1: 3; call: inactive
CG8757 [DRSC11039] — mitotic cells, replicate 1: 8; call: inactive
CG8757 [DRSC24587] — mitotic cells, replicate 1: 6; call: inactive
CG9427 [DRSC16490] — mitotic cells, replicate 1: 10; call: inactive
CG9427 [DRSC28856] — mitotic cells, replicate 1: 5; call: inactive
Phb1 [DRSC03563] — mitotic cells, replicate 1: 8; call: inactive
Phb1 [DRSC27403] — mitotic cells, replicate 1: 9; call: inactive
mRpL38 [DRSC19734] — mitotic cells, replicate 1: 4; call: inactive
mRpL38 [DRSC29074] — mitotic cells, replicate 1: 7; call: inactive
CG5039 [DRSC15703] — mitotic cells, replicate 1: 5; call: inactive
CG5039 [DRSC27367] — mitotic cells, replicate 1: 5; call: inactive
awd [DRSC16906] — mitotic cells, replicate 1: 16; call: inactive
RhoU [DRSC17803] — mitotic cells, replicate 1: 11; call: inactive
RhoU [DRSC17804] — mitotic cells, replicate 1: 13; mitotic cells, replicate 2: 11; call: inactive
RhoU [DRSC22159] — mitotic cells, replicate 1: 11; call: inactive
RhoU [DRSC22396] — mitotic cells, replicate 1: 7; call: inactive
RhoU [DRSC25197] — mitotic cells, replicate 1: 8; call: inactive
RhoU [DRSC28919] — mitotic cells, replicate 1: 5; call: inactive
Arc2 [DRSC06436] — mitotic cells, replicate 1: 5; call: inactive
Arc2 [DRSC28707] — mitotic cells, replicate 1: 4; call: inactive

3 neighbouring reagents from above, quoted:
CG9427 [DRSC28856] — mitotic cells, replicate 1: 5; call: inactive
Phb1 [DRSC03563] — mitotic cells, replicate 1: 8; call: inactive
Phb1 [DRSC27403] — mitotic cells, replicate 1: 9; call: inactive

Continued.
CG2898 [DRSC18238] — mitotic cells, replicate 1: 11; call: inactive
Hesr [DRSC19965] — mitotic cells, replicate 1: 14; call: inactive
ssp7 [DRSC18878] — mitotic cells, replicate 1: 4; call: inactive
CG5810 [DRSC15880] — mitotic cells, replicate 1: 10; call: inactive
CG5810 [DRSC21921] — mitotic cells, replicate 1: 11; call: inactive
CG6294 + CG6299 [DRSC19980] — mitotic cells, replicate 1: 5; call: inactive
CG6294 + CG6299 [DRSC27443] — mitotic cells, replicate 1: 4; call: inactive
betaTub85D [DRSC16910] — mitotic cells, replicate 1: 135; call: inactive
betaTub85D [DRSC25043] — mitotic cells, replicate 1: 8; call: inactive
CG32845 [DRSC07867] — mitotic cells, replicate 1: 6; call: inactive
CG32845 [DRSC28003] — mitotic cells, replicate 1: 9; call: inactive
Chd64 [DRSC08649] — mitotic cells, replicate 1: 14; call: inactive
Chd64 [DRSC28823] — mitotic cells, replicate 1: 2; call: inactive
MCPH1 [DRSC06309] — mitotic cells, replicate 1: 5; call: inactive
MCPH1 [DRSC07308] — mitotic cells, replicate 1: 5; call: inactive
MCPH1 [DRSC22536] — mitotic cells, replicate 1: 10; call: inactive
MCPH1 [DRSC28302] — mitotic cells, replicate 1: 6; call: inactive
CG13766 [DRSC02271] — mitotic cells, replicate 1: 6; call: inactive
CG13766 [DRSC29049] — mitotic cells, replicate 1: 7; call: inactive
Sras [DRSC11287] — mitotic cells, replicate 1: 4; call: inactive
dah [DRSC20320] — mitotic cells, replicate 1: 1; call: inactive
dpr16 [DRSC12217] — mitotic cells, replicate 1: 10; call: inactive
dpr16 [DRSC12249] — mitotic cells, replicate 1: 9; call: inactive
